The target in test [1] is Mer3-TurboID (S. cerevisiae) (UniProt P51979). Briefly: proximity labelling; eleven TurboID fusion strains (ndt80, homozygous) and a no-TurboID control, ~24 h sporulation, two replicates; TCA extract, streptavidin-sepharose pull-down, trypsin, UPLC-MS/MS; targets = in both replicates and in neither control.
Test [2] concerns the target T1, Mlh3-TurboID (S. cerevisiae) (UniProt Q12083).
T1 sequence: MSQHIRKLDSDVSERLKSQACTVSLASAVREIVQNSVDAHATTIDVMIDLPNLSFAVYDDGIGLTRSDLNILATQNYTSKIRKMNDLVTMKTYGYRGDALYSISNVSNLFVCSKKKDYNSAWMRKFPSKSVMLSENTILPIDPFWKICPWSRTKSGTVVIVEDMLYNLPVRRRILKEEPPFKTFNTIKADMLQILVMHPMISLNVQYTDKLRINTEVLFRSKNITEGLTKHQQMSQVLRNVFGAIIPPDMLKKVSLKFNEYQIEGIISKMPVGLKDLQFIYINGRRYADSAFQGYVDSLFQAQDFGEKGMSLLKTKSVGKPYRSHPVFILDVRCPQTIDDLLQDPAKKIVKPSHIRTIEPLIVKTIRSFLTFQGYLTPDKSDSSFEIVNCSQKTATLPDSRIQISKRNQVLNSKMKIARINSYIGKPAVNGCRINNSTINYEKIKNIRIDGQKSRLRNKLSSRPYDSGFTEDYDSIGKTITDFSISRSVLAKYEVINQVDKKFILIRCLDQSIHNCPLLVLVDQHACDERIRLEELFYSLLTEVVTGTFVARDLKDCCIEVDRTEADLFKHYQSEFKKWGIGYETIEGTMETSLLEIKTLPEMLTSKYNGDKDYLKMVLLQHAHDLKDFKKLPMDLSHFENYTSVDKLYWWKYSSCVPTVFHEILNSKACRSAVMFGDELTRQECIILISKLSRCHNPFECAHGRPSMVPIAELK
The test is described as above.

Amino acid sequences for entries named in this document (tags omitted).
UniProt P51979: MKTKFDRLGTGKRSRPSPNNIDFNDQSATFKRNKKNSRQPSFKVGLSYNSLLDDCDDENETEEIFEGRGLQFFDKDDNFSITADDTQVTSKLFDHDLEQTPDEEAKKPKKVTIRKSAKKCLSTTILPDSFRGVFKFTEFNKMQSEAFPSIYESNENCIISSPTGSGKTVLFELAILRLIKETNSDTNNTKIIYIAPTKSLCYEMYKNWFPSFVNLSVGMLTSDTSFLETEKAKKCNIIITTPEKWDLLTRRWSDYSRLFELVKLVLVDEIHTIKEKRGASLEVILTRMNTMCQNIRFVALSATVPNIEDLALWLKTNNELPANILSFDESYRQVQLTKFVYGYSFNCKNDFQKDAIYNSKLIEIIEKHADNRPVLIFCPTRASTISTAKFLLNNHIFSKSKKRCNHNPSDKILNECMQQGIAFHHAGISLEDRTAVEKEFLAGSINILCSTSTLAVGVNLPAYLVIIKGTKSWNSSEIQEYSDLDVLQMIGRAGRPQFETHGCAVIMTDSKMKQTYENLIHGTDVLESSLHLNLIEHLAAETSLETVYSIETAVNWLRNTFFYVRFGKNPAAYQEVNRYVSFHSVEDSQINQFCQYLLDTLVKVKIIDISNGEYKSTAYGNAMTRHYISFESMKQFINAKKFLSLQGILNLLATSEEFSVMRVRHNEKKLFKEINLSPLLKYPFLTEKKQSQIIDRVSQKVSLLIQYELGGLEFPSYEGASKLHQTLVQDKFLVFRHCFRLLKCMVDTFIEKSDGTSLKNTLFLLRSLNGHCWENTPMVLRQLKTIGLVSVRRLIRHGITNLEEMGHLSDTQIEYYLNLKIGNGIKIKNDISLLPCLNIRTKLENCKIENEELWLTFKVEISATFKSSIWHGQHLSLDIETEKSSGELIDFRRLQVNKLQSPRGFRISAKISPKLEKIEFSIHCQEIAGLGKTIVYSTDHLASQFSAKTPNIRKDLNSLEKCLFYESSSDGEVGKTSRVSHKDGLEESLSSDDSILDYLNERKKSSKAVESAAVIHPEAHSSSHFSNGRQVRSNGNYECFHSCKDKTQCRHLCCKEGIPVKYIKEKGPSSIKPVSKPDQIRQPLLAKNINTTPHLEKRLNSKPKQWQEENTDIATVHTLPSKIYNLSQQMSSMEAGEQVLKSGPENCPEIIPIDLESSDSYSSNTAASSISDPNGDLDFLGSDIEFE

The target in test [3] is Zip4iTurboID (S. cerevisiae). The description is as above.
For test [4], the target named is Zip4-TurboID (S. cerevisiae). The description is as above.
For test [5], the target named is T2, TurboID-Gmc2 (S. cerevisiae) (UniProt Q06201).
T2 sequence: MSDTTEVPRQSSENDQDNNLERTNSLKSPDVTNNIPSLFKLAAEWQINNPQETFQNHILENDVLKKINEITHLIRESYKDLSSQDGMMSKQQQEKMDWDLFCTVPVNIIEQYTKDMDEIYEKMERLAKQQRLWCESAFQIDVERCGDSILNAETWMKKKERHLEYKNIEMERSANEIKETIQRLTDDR
Described as above.

The target of test [6] is Zip4iTurboID (S. cerevisiae). Briefly: proximity labelling; TurboID fusion allele (homozygous, or heterozygous where said) in ndt80 diploid cells, 24 h in sporulation medium, endogenous biotin; TCA extract, 8% or 12% SDS-PAGE, streptavidin:HRP blot; also done in mutant backgrounds in which the labelling was kept.
For test [7], the target named is T3, Zip3iTurboID (S. cerevisiae) (UniProt Q06032).
T3 sequence: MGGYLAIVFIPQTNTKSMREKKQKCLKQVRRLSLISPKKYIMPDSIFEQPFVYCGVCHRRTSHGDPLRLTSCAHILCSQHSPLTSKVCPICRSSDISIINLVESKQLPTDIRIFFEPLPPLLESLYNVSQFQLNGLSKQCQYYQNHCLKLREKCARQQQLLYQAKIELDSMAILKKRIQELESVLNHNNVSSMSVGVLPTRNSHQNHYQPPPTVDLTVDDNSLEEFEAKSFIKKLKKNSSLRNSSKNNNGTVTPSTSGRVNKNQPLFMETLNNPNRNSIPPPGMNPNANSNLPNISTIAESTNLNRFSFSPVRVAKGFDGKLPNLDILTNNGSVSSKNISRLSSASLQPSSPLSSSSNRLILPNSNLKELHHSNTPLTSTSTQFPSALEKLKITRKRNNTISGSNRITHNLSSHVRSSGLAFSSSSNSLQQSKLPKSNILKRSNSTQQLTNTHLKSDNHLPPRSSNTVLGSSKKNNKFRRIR
The description is as above.

These are yes or no findings as the source states them, for the method shown. Binding seen in cells or lysates may run through a third protein. These calls come from enrichment with a bait or labelling near it, and not all partners need be listed. For some of these results: A no says only that the protein was not detected with the bait.

Experimental findings from PMC11508090 are described below.

B1: Zip3 (protein, UniProt Q06032 1-482)
chain: T3 sequence
For the molecule B1, the binding entry in test [1] is on record as “binds”; in test [2] it was “no binding”; in test [3], “binds”; in test [4], “binds”; in test [5], “no binding”; in test [6], “binds weakly”. Further, the binding result in test [7] is given as “binds”.
